Measurements reported in patent US10934303B2, “Aryl ethene derivative and pharmaceutical composition containing same as active ingredient” (priority 2016, dated 2021).
At least one compound was matched to its structure with a doubt left.

Tested on: ERRγ
Assay type: cell-based

SMILES: OCCC/C(=C(\c1ccc(Br)cc1)c1ccc(N2CCNCC2)cc1)c1ccccc1 [Compound 20a, (E)-5-(4-bromophenyl)-4-phenyl-5-(4-(piperazin-1-yl)phenyl)pent-4-en-1-ol]
- Functional Assay, Cpds/Ref 5182: 0.77
